Laboratory results as given in the supplement of paper PMC4604168 (melanoma cell lines).
The list shows a part of the results. Repeats are few or missing, and single values can be far off.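 The apoptosis fraction was the count of cleaved-PARP antibody-stained nuclei relative to all DNA-stained nuclei, imaged in 1,536-well plates. Screening doses were set so most cells survived, and baseline and induced cleaved-PARP levels vary greatly across cell lines.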

Experiments:
Assay in all cases: cleaved PARP positive nuclei fraction relative to DMSO control; melanoma cells; higher = more apoptosis
Settings in all cases: library dose: low library concentration; 72 h
COLO792 = test system: COLO792
COLO800 = test system: COLO800
COLO829 = test system: COLO829
G361 = test system: G361
IPC-298 = test system: IPC-298
IST-MEL1 = test system: IST-MEL1
LB2518-MEL = test system: LB2518-MEL
LOXIMVI = test system: LOXIMVI

Structure (SMILES)	cleaved PARP positive nuclei fraction (COLO792)	cleaved PARP positive nuclei fraction (COLO800)	cleaved PARP positive nuclei fraction (COLO829)	cleaved PARP positive nuclei fraction (G361)	cleaved PARP positive nuclei fraction (IPC-298)	cleaved PARP positive nuclei fraction (IST-MEL1)	cleaved PARP positive nuclei fraction (LB2518-MEL)	cleaved PARP positive nuclei fraction (LOXIMVI)
CC1(C)CCC(c2ccc(Cl)cc2)=C(CN2CCN(c3ccc(C(=O)NS(=O)(=O)c4ccc(N[C@H](CCN5CCOCC5)CSc5ccccc5)c(S(=O)(=O)C(F)(F)F)c4)cc3)CC2)C1 + CCc1ccc(CCOc2ccc(CC3SC(=O)NC3=O)cc2)nc1 [pioglitazone] (first compound 0.4 µM, partner dose 2 µM)	309%	42.6%	105%	131%	93.5%	100%	256%	195%
CN(c1ncccc1CNc1nc(Nc2ccc3c(c2)CC(=O)N3)ncc1C(F)(F)F)S(C)(=O)=O + O=S(=O)(c1ccccc1)N(CC(F)(F)F)c1ccc(C(O)(C(F)(F)F)C(F)(F)F)cc1 [T0901317] (first compound 0.08 µM, partner dose 1.4 µM)	55%	36.6%	146%	86.9%	52%	83.3%	82.3%	89.5%
COc1ccc(C2=N[C@@H](c3ccc(Cl)cc3)[C@@H](c3ccc(Cl)cc3)N2C(=O)N2CCNC(=O)C2)c(OC(C)C)c1 [Nutlin-3] + O=C1NC(=O)/C(=C/c2ccc(-c3ccc(F)cc3O)o2)S1 [AS252424] (first compound 0.1 µM, partner dose 1 µM)	111%	80.2%	165%	112%	49.2%	144%	84.7%	201%
Cn1cnc2c(F)c(Nc3ccc(Br)cc3Cl)c(C(=O)NOCCO)cc21 [selumetinib] + O=C(Nc1ccccc1)c1cc([N+](=O)[O-])ccc1Cl [GW9662] (first compound 0.015 µM, partner dose 2 µM)	102%	97.6%	87.4%	147%	138%	129%	254%	148%
C[C@]1(O)C[C@@H](c2nc(-c3ccc4ccc(-c5ccccc5)nc4c3)c3c(N)nccn32)C1 + COc1cc(N2CCC(N3CCN(C)CC3)CC2)ccc1Nc1ncc(Cl)c(Nc2ccccc2S(=O)(=O)C(C)C)n1 [NVP-TAE684] (first compound 0.4 µM, partner dose 0.08 µM)	93.5%	135%	53.4%	105%	95.5%	84.3%	123%	98.2%
NC(=O)c1ccc(N(C(N)=O)c2c(F)cccc2F)nc1-c1ccc(F)cc1F + COc1ccc(-c2ccc3c(N4CCOCC4)nc(N4C[C@@H](C)O[C@@H](C)C4)nc3n2)cc1CO [KU0063794] (first compound 0.4 µM, partner dose 0.02 µM)	46.3%	96%	56.6%	84.5%	94.4%	126%	76.6%	74.6%
CCCCCCCCc1ccc(CCC(N)(CO)CO)cc1 [fingolimod] + CCN(CC)CCCCNc1ncc2cc(-c3cc(OC)cc(OC)c3)c(NC(=O)NC(C)(C)C)nc2n1 [PD173074] (first compound 2 µM, partner dose 0.1 µM)	55%	194%	277%	266%	241%	49.2%	67.3%	62.8%
CC1(C)CCC(c2ccc(Cl)cc2)=C(CN2CCN(c3ccc(C(=O)NS(=O)(=O)c4ccc(N[C@H](CCN5CCOCC5)CSc5ccccc5)c(S(=O)(=O)C(F)(F)F)c4)cc3)CC2)C1 + Cc1cc([N+](=O)[O-])ccc1NS(=O)(=O)c1cc(Cl)ccc1Cl [FH535] (first compound 0.4 µM, partner dose 1 µM)	624%	67%	84.4%	362%	172%	502%	268%	66.1%
CN(c1ncccc1CNc1nc(Nc2ccc3c(c2)CC(=O)N3)ncc1C(F)(F)F)S(C)(=O)=O + O=C1NC(=O)/C(=C/c2ccc(-c3ccc(F)cc3O)o2)S1 [AS252424] (first compound 0.08 µM, partner dose 1 µM)	152%	50.2%	174%	178%	96.7%	101%	77.7%	139%
CC1(C)CCC(c2ccc(Cl)cc2)=C(CN2CCN(c3ccc(C(=O)NS(=O)(=O)c4ccc(N[C@H](CCN5CCOCC5)CSc5ccccc5)c(S(=O)(=O)C(F)(F)F)c4)cc3)CC2)C1 + CC(C)CCN1c2nc(Nc3cc(F)c(O)c(F)c3)ncc2N(C)C(=O)C1C [BID1870] (first compound 0.4 µM, partner dose 0.2 µM)	399%	279%	258%	147%	61%	190%	141%	3520%
Cn1cnc2c(F)c(Nc3ccc(Br)cc3Cl)c(C(=O)NOCCO)cc21 [selumetinib] + COc1ccc(-c2ccc3c(N4CCOCC4)nc(N4C[C@@H](C)O[C@@H](C)C4)nc3n2)cc1CO [KU0063794] (first compound 0.015 µM, partner dose 0.02 µM)	26.4%	32.5%	94.5%	162%	126%	145%	260%	109%
Cn1cnc2c(F)c(Nc3ccc(Br)cc3Cl)c(C(=O)NOCCO)cc21 [selumetinib] + Oc1nc(-c2ccc(C(F)(F)F)cc2)nc2c1CSCC2 [XAV939] (first compound 0.015 µM, partner dose 2 µM)	59.9%	77.4%	83.8%	107%	55.9%	130%	111%	99.7%
Cn1cnc2c(F)c(Nc3ccc(Br)cc3Cl)c(C(=O)NOCCO)cc21 [selumetinib] + COc1cc2ncnc(Nc3ccc(Oc4ccccc4)cc3)c2cc1OC [SrcI1] (first compound 0.015 µM, partner dose 2 µM)	135%	35.8%	176%	169%	88.6%	109%	169%	28.7%
NC(=O)c1ccc(N(C(N)=O)c2c(F)cccc2F)nc1-c1ccc(F)cc1F + CCN(CC)CCCCNc1ncc2cc(-c3cc(OC)cc(OC)c3)c(NC(=O)NC(C)(C)C)nc2n1 [PD173074] (first compound 0.4 µM, partner dose 0.1 µM)	131%	75.8%	80.2%	80%	82.9%	77%	167%	160%
CCCCCCCCc1ccc(CCC(N)(CO)CO)cc1 [fingolimod] + O=C1NC(=O)/C(=C/c2ccc(-c3ccc(F)cc3O)o2)S1 [AS252424] (first compound 2 µM, partner dose 1 µM)	97.3%	147%	61.1%	55.3%	136%	104%	80.7%	34.5%
CCN(CC)CCNC(=O)c1c(C)[nH]c(/C=C2\C(=O)Nc3ccc(F)cc32)c1C [sunitinib] + COc1cc(N2CCC(N3CCN(C)CC3)CC2)ccc1Nc1ncc(Cl)c(Nc2ccccc2S(=O)(=O)C(C)C)n1 [NVP-TAE684] (first compound 0.4 µM, partner dose 0.08 µM)	157%	189%	63.5%	155%	219%	102%	92.8%	137%
Cn1cnc2c(F)c(Nc3ccc(Br)cc3Cl)c(C(=O)NOCCO)cc21 [selumetinib] + O=C1NC(=O)/C(=C/c2ccc(-c3ccc(F)cc3O)o2)S1 [AS252424] (first compound 0.015 µM, partner dose 1 µM)	43%	84.5%	22.1%	231%	166%	70.9%	329%	108%
C[C@@H](N)c1ccc(C(=O)Nc2ccnc3[nH]ccc23)cc1 + Cn1cc(/C=C2\C(=O)Nc3cccnc32)c2ccccc21 [GW441756] (first compound 0.4 µM, partner dose 0.4 µM)	45.3%	103%	103%	173%	137%	18.2%	151%	38.4%
CC1(C)CCC(c2ccc(Cl)cc2)=C(CN2CCN(c3ccc(C(=O)NS(=O)(=O)c4ccc(N[C@H](CCN5CCOCC5)CSc5ccccc5)c(S(=O)(=O)C(F)(F)F)c4)cc3)CC2)C1 + COc1ccc(COc2ccc(Cc3cnc(N)nc3N)cc2OC)cc1 [GW2580] (first compound 0.4 µM, partner dose 1 µM)	265%	133%	51.5%	218%	281%	96.9%	88.7%	104%
C[C@]1(O)C[C@@H](c2nc(-c3ccc4ccc(-c5ccccc5)nc4c3)c3c(N)nccn32)C1 + O=C(Nc1ccccc1)c1cc([N+](=O)[O-])ccc1Cl [GW9662] (first compound 0.4 µM, partner dose 2 µM)	49.7%	91.7%	108%	129%	119%	84.9%	157%	158%
C[C@]1(O)C[C@@H](c2nc(-c3ccc4ccc(-c5ccccc5)nc4c3)c3c(N)nccn32)C1 + O=c1cc(-c2cccc3c2Sc2ccccc2S3)oc(N2CCOCC2)c1 [KU55933] (first compound 0.4 µM, partner dose 1 µM)	148%	75.8%	62.7%	165%	94.4%	71.4%	203%	60.1%
C[C@@H](N)c1ccc(C(=O)Nc2ccnc3[nH]ccc23)cc1 + Oc1nc(-c2ccc(C(F)(F)F)cc2)nc2c1CSCC2 [XAV939] (first compound 0.4 µM, partner dose 2 µM)	128%	58.6%	153%	151%	142%	37.5%	274%	96.8%
CC(=O)O[C@@]12CO[C@@H]1C[C@H](O)[C@@]1(C)C(=O)[C@H](O)C3=C(C)[C@@H](OC(=O)[C@H](O)[C@@H](NC(=O)OC(C)(C)C)c4ccccc4)C[C@@](O)([C@@H](OC(=O)c4ccccc4)[C@H]21)C3(C)C [Docetaxel] + CCN(CC)CCCCNc1ncc2cc(-c3cc(OC)cc(OC)c3)c(NC(=O)NC(C)(C)C)nc2n1 [PD173074] (first compound 0.0001 µM, partner dose 0.1 µM)	911%	191%	201%	626%	488%	256%	180%	44.8%

Look-ups from above.
Value of C[C@]1(O)C[C@@H](c2nc(-c3ccc4ccc(-c5ccccc5)nc4c3)c3c(N)nccn32)C1 + COc1cc(N2CCC(N3CCN(C)CC3)CC2)ccc1Nc1ncc(Cl)c(Nc2ccccc2S(=O)(=O)C(C)C)n1 [NVP-TAE684] (first compound 0.4 µM, partner dose 0.08 µM) under cleaved PARP positive nuclei fraction (G361): 105%
Value of COc1ccc(C2=N[C@@H](c3ccc(Cl)cc3)[C@@H](c3ccc(Cl)cc3)N2C(=O)N2CCNC(=O)C2)c(OC(C)C)c1 [Nutlin-3] + O=C1NC(=O)/C(=C/c2ccc(-c3ccc(F)cc3O)o2)S1 [AS252424] (first compound 0.1 µM, partner dose 1 µM) under cleaved PARP positive nuclei fraction (IPC-298): 49.2%
